In patent US12331019B2, “Modified amino acid derivatives for the treatment of neurological diseases and selected psychiatric disorders” (Uniwersytet Jagiellonski, priority 2019, dated 2025):

System: Swiss albino mice (CD-1)
Test: maximal electroshock seizure test (MES)
Format: in vivo, mouse
Conditions: i.p., CD-1 mice

Row | Compound | PI TD50/ED50 (MES)
1 | C[C@H](C(=O)NCc1ccccc1F)N1C(=O)CCC1=O [Compound 2, (2R)-2-(2,5-dioxopyrrolidin-1-yl)-N-(2-fluorobenzyl)propanamide] | 9.0 (MES)
2 | CCCC(CCC)C(=O)O [VPA, valproic acid, reference compound] | 1.7 (MES)
